At least one compound was matched to its structure with a doubt left.
Test system: human term placenta
Assay: Effect of estradiol or estradiol and progesterone on prostanoid and hCG release from perifused human term placental explants
Type: cell-based
Settings: for cumulative release of 6-keto-PGF1α: four hours
[1] = estradiol 20-2,000 ng/ml, or estradiol 200 and progesterone 2,000 ng/ml, any time point

C[C@]12CC[C@@H]3c4ccc(O)cc4CC[C@H]3[C@@H]1CC[C@@H]2O [estradiol]
cumulative release of 6-keto-PGF1α (estradiol 20 ng/ml): inhibition | release of 6-keto-PGF1α (estradiol 200 ng/ml, 60-120 min after exposure): significantly increased | cumulative release of 6-keto-PGF1α (estradiol 200 ng/ml): stimulation | cumulative release of PGE over the four hours of exposure (estradiol 20-2,000 ng/ml): significantly inhibited | PGF release at time points (estradiol 20-2,000 ng/ml, or estradiol 200 and progesterone 2,000 ng/ml): not significantly affected | release of PGFM [1]: not affected | release of TxB2 [1]: not affected | release of hCG [1]: not affected | cumulative release of PGF (increasing estradiol concentration 20-2,000 ng/ml): inhibited in a dose-related fashion

Reference: patent US6461613B2, “Methods and compositions for the selective regulation of chorionic prostanoids” (priority 1993, dated 2002)
